PubChem BioAssay AID504786 – Drosophila RNAi Screening Center, 2011
The screen tested about 21,000 reagents; below is an unselected part of those with a known target gene and a result. 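Primary screen; positive scores mean lost reporter signal, so the sign may be inverted from the usual convention.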 Names joined by + are all predicted targets of the reagent. No sequences are given here.

Aim: 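Positive regulators of HIF-driven reporter output in Drosophila cells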 (primary screen)
Cell system: Drosophila S2 cells with a stable HIF luciferase reporter
Reagents: long dsRNA against Drosophila genes, about 0.2 µg dsRNA per well of a 384-well plate
Timing: three days of knock-down, then 20 h of DFO before reading
Treatment: desferrioxamine (DFO) at 100 µM, an iron chelator that mimics hypoxia, for 20 h
Measured: 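Firefly luciferase driven by the mouse ldh-a hypoxia-response element, measured after 20 h of 100 µM DFO; z-scores per plate, higher means more signal lost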
Direction: z-score: higher = stronger loss of HIF reporter signal

CG6843 [DRSC10725] → z-score, replicate 1: -0.1; z-score, replicate 2: 0.2
Su(var)205 (Suppressor of variegation 205) [DRSC03446] → z-score, replicate 1: 0.4; z-score, replicate 2: 2.6
Spn77Ba (Serpin 77Ba) [DRSC10693] → z-score, replicate 1: -0.3; z-score, replicate 2: -0.2
CG12307 [DRSC02159] → z-score, replicate 1: -0.1; z-score, replicate 2: -0.1
CG8136 [DRSC16385] → z-score, replicate 1: -0.3; z-score, replicate 2: -0.8
CG14285 [DRSC14766] → z-score, replicate 1: -0.2; z-score, replicate 2: -0.2
CG4409 [DRSC06869] → z-score, replicate 1: -0.2; z-score, replicate 2: -0.2
GstT4 (Glutathione S transferase T4) [DRSC19757] → z-score, replicate 1: -0.4; z-score, replicate 2: -0.4
asRNA:CR33945 (antisense RNA:CR33945) [DRSC14080] → z-score, replicate 1: -0.7; z-score, replicate 2: -0.6
wwk (white walker) [DRSC01941] → z-score, replicate 1: -0.3; z-score, replicate 2: -0.1
CG31051 [DRSC15034] → z-score, replicate 1: 0.7; z-score, replicate 2: 0.2
crol (crooked legs) [DRSC03514] → z-score, replicate 1: -0.2; z-score, replicate 2: -0.1
Sik2 (Salt-inducible kinase 2) [DRSC18522] → z-score, replicate 1: -0.2; z-score, replicate 2: -0.6
CG17707 [DRSC20650] → z-score, replicate 1: -0.1; z-score, replicate 2: -0.2
CG33255 (retired record) + hpRNA:CR32205 [DRSC09610] → z-score, replicate 1: -0.2; z-score, replicate 2: -0.3
CG33255 (retired record) + hpRNA:CR32205 [DRSC09611] → z-score, replicate 1: -0.4; z-score, replicate 2: -0.1
CG3557 [DRSC00614] → z-score, replicate 1: -0.4; z-score, replicate 2: -0.3
grp + CG31782 (retired record) [DRSC03541] → z-score, replicate 1: -0.3; z-score, replicate 2: 0.2
pes (peste) [DRSC03033] → z-score, replicate 1: -0.2; z-score, replicate 2: -0.5
zf30C (zinc finger protein 30C) [DRSC03641] → z-score, replicate 1: -0.1; z-score, replicate 2: -0.4
CG14483 [DRSC06455] → z-score, replicate 1: -0.1; z-score, replicate 2: 0
CG33673 [DRSC00084] → z-score, replicate 1: -0.5; z-score, replicate 2: -0.1
GstE9 (Glutathione S transferase E9) [DRSC06679] → z-score, replicate 1: -0.2; z-score, replicate 2: -0.5
Cp190 (Centrosomal protein 190kD) [DRSC16607] → z-score, replicate 1: -0.1; z-score, replicate 2: -0.1
D19A [DRSC11133] → z-score, replicate 1: 2.6; z-score, replicate 2: 3.5
CG33919 [DRSC04940] → z-score, replicate 1: -0.2; z-score, replicate 2: -0.3
Pgm2b (Phosphoglucomutase 2b) [DRSC05978] → z-score, replicate 1: -0.3; z-score, replicate 2: -0.5
CG12998 [DRSC19518] → z-score, replicate 1: -0.4; z-score, replicate 2: -0.4
CG17570 [DRSC01770] → z-score, replicate 1: 0.1; z-score, replicate 2: -0.1
CG17570 [DRSC03754] → z-score, replicate 1: -0.2; z-score, replicate 2: -0.3
CG7298 [DRSC10802] → z-score, replicate 1: -0.3; z-score, replicate 2: -0.5
CG13720 [DRSC08329] → z-score, replicate 1: -0.3; z-score, replicate 2: -0.9
CG33296 [DRSC00998] → z-score, replicate 1: 0.1; z-score, replicate 2: -0.1
Ir7d (Ionotropic receptor 7d) [DRSC18010] → z-score, replicate 1: -0.1; z-score, replicate 2: 0.1
CG5506 [DRSC10511] → z-score, replicate 1: -0.3; z-score, replicate 2: -0.1
CG4658 [DRSC02768] → z-score, replicate 1: -0.3; z-score, replicate 2: -0.7
CG30323 [DRSC07656] → z-score, replicate 1: -0.3; z-score, replicate 2: 0.1
Nox (NADPH oxidase) [DRSC06596] → z-score, replicate 1: -0.3; z-score, replicate 2: -0.5
Nox (NADPH oxidase) [DRSC06857] → z-score, replicate 1: -0.2; z-score, replicate 2: -1.1
Btnd (Biotinidase) [DRSC18316] → z-score, replicate 1: -0.3; z-score, replicate 2: 0.1

Laid out differently: results already given
| gene | amplicon | z-score, replicate 1 | z-score, replicate 2 |
| --- | --- | --- | --- |
| GstT4 (Glutathione S transferase T4) | DRSC19757 | -0.4 | -0.4 |
| asRNA:CR33945 (antisense RNA:CR33945) | DRSC14080 | -0.7 | -0.6 |
